This experiment has as its target Fos with C-terminal GST-E-coil tag (control feature on the array) (human) (UniProt P01100). Kind of experiment: SPR; NAPPA-SPRi: p53 proteins with GST-E-coil translated in situ and captured by K-coil peptide on a gold slide; purified full-length MDM2 20 μg/mL injected at 3 μL/s; running buffer 1x PBS, 1% Tween 20; 1:1 fit with Scrubber 2.0; apparent constants; only the binder purified.

By UniProt entry, the sequences of proteins in these tests, tags left out.
UniProt P01100: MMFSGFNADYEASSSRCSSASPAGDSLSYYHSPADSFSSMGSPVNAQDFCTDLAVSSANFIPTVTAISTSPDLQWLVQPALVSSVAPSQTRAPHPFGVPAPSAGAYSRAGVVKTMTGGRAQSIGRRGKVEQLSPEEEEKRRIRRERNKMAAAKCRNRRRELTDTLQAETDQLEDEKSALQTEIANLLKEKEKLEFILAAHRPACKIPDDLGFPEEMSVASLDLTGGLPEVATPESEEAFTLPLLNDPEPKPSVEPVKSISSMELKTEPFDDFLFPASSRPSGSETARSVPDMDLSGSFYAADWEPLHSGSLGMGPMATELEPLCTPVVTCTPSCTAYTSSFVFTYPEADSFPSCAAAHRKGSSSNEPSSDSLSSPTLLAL

These are yes or no findings as the source states them, for the method shown.

With “MDM2, full-length purified recombinant (from UniProt Q00987 1-491)”, the binding result was “no binding (tested: 20 μg/mL)”.

(Values after publication PMC8744954.)
